Results as given in patent US20220002403A1.
These are yes or no findings as the source states them, for the method shown. Some binding calls cover weakened binding; strength is not graded here.

Protein sequences, listed by entry. Tags and fused reporters are not part of them. Lines headed by an entry give the natural chain unless they say otherwise; changes in a name come on top.
UniProt Q8N423: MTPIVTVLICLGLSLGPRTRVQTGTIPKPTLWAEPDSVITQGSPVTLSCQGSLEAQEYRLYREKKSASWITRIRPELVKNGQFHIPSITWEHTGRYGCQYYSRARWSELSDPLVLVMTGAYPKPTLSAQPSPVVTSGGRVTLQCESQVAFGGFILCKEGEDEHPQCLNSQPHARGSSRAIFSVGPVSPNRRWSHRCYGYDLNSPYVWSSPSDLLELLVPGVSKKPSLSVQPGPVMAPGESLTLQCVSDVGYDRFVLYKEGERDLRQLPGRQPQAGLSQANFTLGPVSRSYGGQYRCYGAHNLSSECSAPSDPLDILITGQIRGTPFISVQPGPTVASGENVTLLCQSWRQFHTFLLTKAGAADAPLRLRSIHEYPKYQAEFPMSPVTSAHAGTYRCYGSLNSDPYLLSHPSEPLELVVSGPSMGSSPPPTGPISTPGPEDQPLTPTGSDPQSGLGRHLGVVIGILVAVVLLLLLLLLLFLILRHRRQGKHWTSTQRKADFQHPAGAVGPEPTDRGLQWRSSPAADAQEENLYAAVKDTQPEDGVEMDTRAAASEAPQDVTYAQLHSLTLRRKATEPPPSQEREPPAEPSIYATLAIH

What was measured:
[1] = target: endogenous human ILT4 on primary human cells (PBMC; tumor histoculture myeloid cells) (human) (UniProt Q8N423); experiment: FACS of tumor histoculture cell suspensions
[2] = target: human ILT4 haplotype 9 expressed on mouse 3A9 T cells (human) (UniProt Q8N423); experiment: flow cytometry on 3A9 T cells expressing ILT4 allelic variants, 10 ug/mL antibody
[3] = target: human ILT4 haplotype 7 expressed on mouse 3A9 T cells (human) (UniProt Q8N423); experiment: as above
[4] = target: human ILT4 haplotype 10 expressed on mouse 3A9 T cells (human) (UniProt Q8N423); experiment: as above
[5] = target: endogenous human ILT4 on primary human cells (PBMC; tumor histoculture myeloid cells) (human) (UniProt Q8N423); experiment: FACS of RCC and CRC tumor histoculture cell suspensions; surface-bound 1E1(G4) detected with an anti-IgG4 secondary antibody

binding [1]: binds
binding [2]: binds
binding [3]: binds
binding [4]: binds
binding [5]: binds
B1: 1E1(G4) (antibody, human IgG4 S228P, lambda, V domains shown)
VH: EVQLQQWGAGLLKPSETLSLTCAVYGGSFSGYYWSWIRQPPGKGLEWIGEINHAGSTNYNPSLKSRVTISVDTSKNQFSLKLSSVTAADTAVYYCARLPTRWVTTRYFDLWGRGTLVTVSS
VL: ESVLTQPPSVSGAPGQRVTISCTGSSSNIGAGYDVHWYQQLPGTAPKLLIYGDSNRPSGVPDRFSVSKSGASASLAITGLQAEDEADYYCQSFDNSLSAYVFGGGTQLTVLG
